PubChem BioAssay AID1259308 – NCATS, 2017

Aim: 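Knock-downs that increase output of a recombinant reporter protein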 (primary screen)
Cells: human HEK293 embryonic kidney cells stably expressing firefly luciferase (HEK-CMV-Luc2-Hygro)
Knock-down reagent: single siRNA against human genes, 0.8 pmol siRNA per well
Timing: 72 h
Read-out: 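Luciferase light (ONE-Glo) measured on one replicate plate set and viability (CellTiter-Glo) on the other, scaled to a negative control siRNA, with robust z-scores and luciferase per cell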
Scale: total luciferase, z-score and total luciferase, % of control: higher = more reporter protein produced
Active means: 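An siRNA counts as active if its total luciferase robust z-score exceeds 3; genes with two or more such siRNAs out of three were retested with fresh siRNAs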
Meaning of the calls: active = raised luciferase; inactive = no rise
In all, the deposit lists about 59,000 reagents; shown is a part drawn at random. About 1,510 of all reagents (2.6%) were called active. 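Calls use total luciferase alone and ignore viability, so some active siRNAs may act by altering cell number.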 Entries without a mark were called inactive. The numbers tell different reagents against one gene apart. Not all columns of the deposit are shown. Reagent sequences are not shown.

no.	Gene	reagent	total luciferase, z-score	total luciferase, % of control
1	ARHGAP23 (Rho GTPase activating protein 23)	1	1.25	107
2	ARHGAP23 (Rho GTPase activating protein 23)	2	-0.261	76.7
3	ARHGAP23 (Rho GTPase activating protein 23)	3	-1.22	57.5
4	PACRGL (parkin coregulated like)	1	-1.27	56.7
5	PACRGL (parkin coregulated like)	2	0.345	88.8
6	PACRGL (parkin coregulated like)	3	-0.396	74
7	PPP6R3 (protein phosphatase 6 regulatory subunit 3)	1	0.681	95.4
8	PPP6R3 (protein phosphatase 6 regulatory subunit 3)	2	-1	62
9	PPP6R3 (protein phosphatase 6 regulatory subunit 3)	3	0.738	96.6
10	STMP1 (short transmembrane mitochondrial protein 1)	1	3.35 (active)	149
11	STMP1 (short transmembrane mitochondrial protein 1)	2	3.19 (active)	145
12	STMP1 (short transmembrane mitochondrial protein 1)	3	-0.485	72.2
13	STMP1 (short transmembrane mitochondrial protein 1)	4	0.358	89
14	STMP1 (short transmembrane mitochondrial protein 1)	5	1	102
15	STMP1 (short transmembrane mitochondrial protein 1)	6	0.757	96.9
16	LGALS1 (galectin 1)	1	0.838	98.6
17	LGALS1 (galectin 1)	2	0.0641	83.2
18	LGALS1 (galectin 1)	3	0.122	84.3
19	CCT8L2 (chaperonin containing TCP1 subunit 8 like 2)	1	1.1	104
20	CCT8L2 (chaperonin containing TCP1 subunit 8 like 2)	2	0.858	99
21	CCT8L2 (chaperonin containing TCP1 subunit 8 like 2)	3	-0.208	77.8
22	CDC42BPA (CDC42 binding protein kinase alpha)	1	0.15	84.9
23	CDC42BPA (CDC42 binding protein kinase alpha)	2	0.787	97.5
24	CDC42BPA (CDC42 binding protein kinase alpha)	3	0.776	97.3
25	DLG5 (discs large MAGUK scaffold protein 5)	1	-0.223	77.5
26	DLG5 (discs large MAGUK scaffold protein 5)	2	-0.22	77.5
27	DLG5 (discs large MAGUK scaffold protein 5)	3	-0.048	80.9
28	CD79A (CD79a molecule)	1	2.6	134
29	CD79A (CD79a molecule)	2	0.477	91.4
30	CD79A (CD79a molecule)	3	3.13 (active)	144
31	PLA2G4D (phospholipase A2 group IVD)	1	0.571	93.2
32	PLA2G4D (phospholipase A2 group IVD)	2	1.86	119
33	PLA2G4D (phospholipase A2 group IVD)	3	-0.289	76.1
34	SLC27A3	1	0.0863	83.6
35	SLC27A3	2	0.263	87.1
36	SLC27A3	3	-0.198	77.9
37	RALGAPB (Ral GTPase activating protein non-catalytic subunit beta)	1	0.434	90.5
38	RALGAPB (Ral GTPase activating protein non-catalytic subunit beta)	2	-0.542	71.1
39	RALGAPB (Ral GTPase activating protein non-catalytic subunit beta)	3	1.19	105
40	BCAT1 (branched chain amino acid transaminase 1)	1	0.087	83.6
41	BCAT1 (branched chain amino acid transaminase 1)	2	-0.736	67.3
42	BCAT1 (branched chain amino acid transaminase 1)	3	-0.469	72.5
43	HUWE1	1	-0.0617	80.7
44	HUWE1	2	0.295	87.7
45	HUWE1	3	0.525	92.3
46	EHMT2 (euchromatic histone lysine methyltransferase 2)	1	-0.679	68.4
47	EHMT2 (euchromatic histone lysine methyltransferase 2)	2	-2.17	38.7
48	EHMT2 (euchromatic histone lysine methyltransferase 2)	3	1.56	113
49	REEP4 (receptor accessory protein 4)	1	0.869	99.2
50	REEP4 (receptor accessory protein 4)	2	-0.169	78.5
51	REEP4 (receptor accessory protein 4)	3	0.434	90.5
52	RGS5 (regulator of G protein signaling 5)	1	0.174	85.3
53	RGS5 (regulator of G protein signaling 5)	2	-0.207	77.8
54	RGS5 (regulator of G protein signaling 5)	3	1.99	121
55	ZNF230 (zinc finger protein 230)	1	-0.416	73.6
56	ZNF230 (zinc finger protein 230)	2	-0.306	75.8
57	ZNF230 (zinc finger protein 230)	3	0.3	87.9

Copied from above for reference:
no.	Gene	reagent	total luciferase, z-score	total luciferase, % of control
2	ARHGAP23 (Rho GTPase activating protein 23)	2	-0.261	76.7
3	ARHGAP23 (Rho GTPase activating protein 23)	3	-1.22	57.5
4	PACRGL (parkin coregulated like)	1	-1.27	56.7
